{
  "sequences": {"note": "The chains behind the UniProt entries cited, without tags or fusion partners.", "UniProt Q9UMS4": "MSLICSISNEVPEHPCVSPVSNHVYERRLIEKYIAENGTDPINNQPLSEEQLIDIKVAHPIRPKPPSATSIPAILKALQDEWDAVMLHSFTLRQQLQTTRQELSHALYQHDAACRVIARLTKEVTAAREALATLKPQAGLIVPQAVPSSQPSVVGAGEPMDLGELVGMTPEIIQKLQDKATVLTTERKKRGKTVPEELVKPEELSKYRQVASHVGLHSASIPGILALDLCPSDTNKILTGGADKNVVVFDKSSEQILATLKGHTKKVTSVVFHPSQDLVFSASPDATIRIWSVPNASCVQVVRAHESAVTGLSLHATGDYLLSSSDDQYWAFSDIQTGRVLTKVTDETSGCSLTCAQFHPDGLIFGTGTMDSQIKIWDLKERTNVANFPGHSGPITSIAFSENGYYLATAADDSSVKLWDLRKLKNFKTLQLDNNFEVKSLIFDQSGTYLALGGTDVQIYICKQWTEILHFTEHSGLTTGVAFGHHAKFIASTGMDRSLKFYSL"},
  "source": "paper PMC3981699",
  "binders": {"B1": {"name": "Flag-SKAP (small kinetochore associated protein) (protein, UniProt Q9Y448 1-316)", "chain": "MAAPEAPPLDRVFRTTWLSTECDSHPLPPSYRKFLFETQAADLAGGTTVAAGNLLNESEKDCGQDRRAPGVQPCRLVTMTSVVKTVYSLQPPSALSGGQPADTQTRATSKSLLPVRSKEVDVSKQLHSGGPENDVTKITKLRRENGQMKATDTATRRNVRKGYKPLSKQKSEEELKDKNQLLEAVNKQLHQKLTETQGELKDLTQKVELLEKFRDNCLAILESKGLDPALGSETLASRQESTTDHMDSMLLLETLQEELKLFNETAKKQMEELQALKVKLEMKEERVRFLEQQTLCNNQVNDLTTALKEMEQLLEM"}},
  "target": "Myc-Prp19 (Pre-mRNA processing Factor 19) (human) (UniProt Q9UMS4)",
  "test": "co-IP; HEK-293T cells transiently co-transfected with Flag-SKAP and Myc-Prp19, lysed in NETN buffer after 48 hours; anti-Myc beads or anti-Flag beads; immunoblot",
  "note": "These are yes or no findings as the source states them, for the method shown. Binding seen in cells or lysates may run through a third protein. Some results given as binding are weak or reduced against the parent protein; the word gives no strength. Sequences can lack the tags named with a protein.",
  "data": [
    {"binder": "B1", "values": [
      {"measurement": "binding", "value": "binds"}
    ]}
  ]
}
